This assay has as its target Drosophila PH4αEFB (Drosophila melanogaster (endogenous in D17 cells)). As to the kind of experiment: affinity purification with mass spectrometry; both proteins endogenous in D17 lysate and recovered together on gelatine Sepharose 4B after a 1 M NaCl wash; gel bands identified by protein ID LC-MS.

Results are given in words; binding and its absence hold for the method and conditions named. Binding seen in cells or lysates may run through a third protein. These calls come from enrichment with a bait or labelling near it, and not all partners need be listed.

B1: Drosophila protein disulfide isomerase (enzyme, UniProt P54399 19-496)
chain: AEAEVKVEEGVLVATVDNFKQLIADNEFVLVEFYAPWCGHCKALAPEYAKAAQQLAEKESPIKLAKVDATVEGELAEQYAVRGYPTLKFFRSGSPVEYSGGRQAADIIAWVTKKTGPPAKDLTSVADAEQFLKDNEIAIIGFFKDLESEEAKTFTKVANALDSFVFGVSSNADVIAKYEAKDNGVVLFKPFDDKKSVFEGELNEENLKKFAQVQSLPLIVDFNHESASKIFGGSIKSHLLFFVSREGGHIEKYVDPLKEIAKKYRDDILFVTISSDEEDHTRIFEFFGMNKEEVPTIRLIKLEEDMAKYKPESDDLSAETIEAFLKKFLDGKLKQHLLSQELPEDWDKNPVKVLVSSNFESVALDKSKSVLVEFYAPWCGHCKQLAPIYDQLAEKYKDNEDIVIAKMDSTANELESIKISSFPTIKYFRKEDNKVIDFNLDRTLDDFVKFLDANGEVADSEPVEETEEEEEAPKKDEL
Consider B1, for which the binding entry was “binds”.

(Values after paper PMC12340787.)
